According to article PMC5803207:
These are yes or no findings as the source states them, for the method shown. For some assays here: In cells and extracts the contact can be indirect. Some entries that bind do so weakly or less than the wild type.

Protein sequences, listed by entry. Tags and fused reporters are not part of them. Lines headed by an entry give the natural chain unless they say otherwise; changes in a name come on top. Chains listed by the source or under a name are the forms on record and can include a tag or linker. Residues count along the entry.
UniProt P00367, residues 54-558: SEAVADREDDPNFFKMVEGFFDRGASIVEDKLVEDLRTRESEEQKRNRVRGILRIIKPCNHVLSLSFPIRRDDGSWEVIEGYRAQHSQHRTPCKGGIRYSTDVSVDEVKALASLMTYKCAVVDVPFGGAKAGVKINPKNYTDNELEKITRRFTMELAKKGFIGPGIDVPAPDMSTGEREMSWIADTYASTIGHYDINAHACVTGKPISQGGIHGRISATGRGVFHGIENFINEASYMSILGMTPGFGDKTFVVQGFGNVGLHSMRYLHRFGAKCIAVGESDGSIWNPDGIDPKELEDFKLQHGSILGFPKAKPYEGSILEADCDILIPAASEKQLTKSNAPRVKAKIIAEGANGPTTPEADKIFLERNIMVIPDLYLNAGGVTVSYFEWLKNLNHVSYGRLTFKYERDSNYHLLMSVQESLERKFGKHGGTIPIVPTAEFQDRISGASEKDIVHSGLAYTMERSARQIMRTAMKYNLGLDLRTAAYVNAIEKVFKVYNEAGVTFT
UniProt Q9NXA8: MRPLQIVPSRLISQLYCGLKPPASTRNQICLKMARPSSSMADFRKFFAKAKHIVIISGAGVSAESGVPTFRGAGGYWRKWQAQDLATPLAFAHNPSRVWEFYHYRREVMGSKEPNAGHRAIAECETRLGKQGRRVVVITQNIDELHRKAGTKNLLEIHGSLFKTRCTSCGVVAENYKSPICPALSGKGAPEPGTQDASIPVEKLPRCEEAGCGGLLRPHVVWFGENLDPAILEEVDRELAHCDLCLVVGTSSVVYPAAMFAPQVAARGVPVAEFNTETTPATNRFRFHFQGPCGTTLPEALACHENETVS
FLAG-SIRT5 H158Y (Q9NXA8, form named): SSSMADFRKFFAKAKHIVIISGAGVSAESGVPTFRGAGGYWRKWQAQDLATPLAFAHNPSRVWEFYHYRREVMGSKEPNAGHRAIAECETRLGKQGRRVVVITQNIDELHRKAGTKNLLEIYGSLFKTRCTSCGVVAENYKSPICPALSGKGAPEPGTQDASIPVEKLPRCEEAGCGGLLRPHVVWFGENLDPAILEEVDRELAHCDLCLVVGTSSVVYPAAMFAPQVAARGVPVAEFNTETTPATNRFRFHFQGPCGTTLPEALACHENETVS

Columns and labels:
GST-GLUD1 = GST-GLUD1 (UniProt P00367); assay: pull-down; GST or GST-GLUD1 on glutathione-Sepharose 4B beads; 150 mM NaCl, 25 mM HEPES pH 7.6, 1 mM dithiothreitol; His-SIRT5 added for 4-8 h at 4 °C; western blot with anti-His and anti-GST; both purified
FLAG-SIRT5 H158Y = FLAG-SIRT5 H158Y (UniProt Q9NXA8); assay: co-IP; anti-FLAG antibody coupled to Amino Link Plus resin (Pierce Co-IP Kit); lysates of HCT116 and LoVo cells stably expressing FLAG-SIRT5 WT or H158Y; overnight at 4 °C; western blot with anti-GLUD1

Row | binding (GST-GLUD1) | binding (FLAG-SIRT5 H158Y) | Substance
1 | binds | – | His-SIRT5 (from UniProt Q9NXA8 1-310) (enzyme)
2 | – | binds | endogenous glutamate dehydrogenase 1 (GLUD1) (from UniProt P00367 54-558) (enzyme)
